Reference: the supplement of paper PMC10849652
Some of the results follow.

Sequences of proteins named here, by UniProt entry; tags and fusion partners are left off. A change or cut given only in a name is not applied to a line headed by its entry.
UniProt P11908: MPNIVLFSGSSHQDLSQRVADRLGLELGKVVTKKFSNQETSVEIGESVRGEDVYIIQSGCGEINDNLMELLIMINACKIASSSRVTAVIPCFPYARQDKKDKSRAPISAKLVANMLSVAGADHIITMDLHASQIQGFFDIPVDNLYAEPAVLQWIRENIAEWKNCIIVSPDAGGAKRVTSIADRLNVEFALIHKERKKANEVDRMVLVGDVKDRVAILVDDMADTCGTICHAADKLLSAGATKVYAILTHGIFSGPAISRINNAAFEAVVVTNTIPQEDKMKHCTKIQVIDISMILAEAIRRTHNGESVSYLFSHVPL
UniProt Q9BZE2: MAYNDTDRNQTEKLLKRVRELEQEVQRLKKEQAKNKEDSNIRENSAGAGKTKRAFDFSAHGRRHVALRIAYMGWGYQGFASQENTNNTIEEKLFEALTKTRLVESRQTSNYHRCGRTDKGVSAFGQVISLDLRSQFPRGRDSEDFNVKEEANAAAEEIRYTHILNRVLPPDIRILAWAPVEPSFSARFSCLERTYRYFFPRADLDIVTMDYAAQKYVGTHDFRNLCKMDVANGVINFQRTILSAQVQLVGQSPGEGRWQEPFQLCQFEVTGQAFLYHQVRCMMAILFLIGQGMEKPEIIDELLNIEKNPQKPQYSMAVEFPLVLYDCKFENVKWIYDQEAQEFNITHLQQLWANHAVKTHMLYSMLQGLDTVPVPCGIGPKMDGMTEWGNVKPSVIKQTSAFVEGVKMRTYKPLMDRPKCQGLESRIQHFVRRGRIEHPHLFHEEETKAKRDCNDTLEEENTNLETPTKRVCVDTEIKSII
UniProt Q86TP1: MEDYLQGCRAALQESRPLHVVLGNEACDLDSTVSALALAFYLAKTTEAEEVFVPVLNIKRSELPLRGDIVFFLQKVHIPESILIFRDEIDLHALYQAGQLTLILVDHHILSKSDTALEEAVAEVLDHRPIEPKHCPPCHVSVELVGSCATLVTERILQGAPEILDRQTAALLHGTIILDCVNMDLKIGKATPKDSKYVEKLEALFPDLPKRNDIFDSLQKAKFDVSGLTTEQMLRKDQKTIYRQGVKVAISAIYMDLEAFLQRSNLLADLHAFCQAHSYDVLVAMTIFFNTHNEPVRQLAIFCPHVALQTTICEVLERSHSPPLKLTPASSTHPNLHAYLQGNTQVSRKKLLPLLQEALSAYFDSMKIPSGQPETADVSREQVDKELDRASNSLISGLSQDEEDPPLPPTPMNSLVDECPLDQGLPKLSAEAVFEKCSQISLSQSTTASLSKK
UniProt O14818: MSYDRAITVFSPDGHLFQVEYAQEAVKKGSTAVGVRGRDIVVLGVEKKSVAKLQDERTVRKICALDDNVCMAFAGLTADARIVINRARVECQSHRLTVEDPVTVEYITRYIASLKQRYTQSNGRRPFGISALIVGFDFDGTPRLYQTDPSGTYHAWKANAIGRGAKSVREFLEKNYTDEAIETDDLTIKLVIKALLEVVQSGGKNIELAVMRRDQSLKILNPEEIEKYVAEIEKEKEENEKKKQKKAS
UniProt Q13200: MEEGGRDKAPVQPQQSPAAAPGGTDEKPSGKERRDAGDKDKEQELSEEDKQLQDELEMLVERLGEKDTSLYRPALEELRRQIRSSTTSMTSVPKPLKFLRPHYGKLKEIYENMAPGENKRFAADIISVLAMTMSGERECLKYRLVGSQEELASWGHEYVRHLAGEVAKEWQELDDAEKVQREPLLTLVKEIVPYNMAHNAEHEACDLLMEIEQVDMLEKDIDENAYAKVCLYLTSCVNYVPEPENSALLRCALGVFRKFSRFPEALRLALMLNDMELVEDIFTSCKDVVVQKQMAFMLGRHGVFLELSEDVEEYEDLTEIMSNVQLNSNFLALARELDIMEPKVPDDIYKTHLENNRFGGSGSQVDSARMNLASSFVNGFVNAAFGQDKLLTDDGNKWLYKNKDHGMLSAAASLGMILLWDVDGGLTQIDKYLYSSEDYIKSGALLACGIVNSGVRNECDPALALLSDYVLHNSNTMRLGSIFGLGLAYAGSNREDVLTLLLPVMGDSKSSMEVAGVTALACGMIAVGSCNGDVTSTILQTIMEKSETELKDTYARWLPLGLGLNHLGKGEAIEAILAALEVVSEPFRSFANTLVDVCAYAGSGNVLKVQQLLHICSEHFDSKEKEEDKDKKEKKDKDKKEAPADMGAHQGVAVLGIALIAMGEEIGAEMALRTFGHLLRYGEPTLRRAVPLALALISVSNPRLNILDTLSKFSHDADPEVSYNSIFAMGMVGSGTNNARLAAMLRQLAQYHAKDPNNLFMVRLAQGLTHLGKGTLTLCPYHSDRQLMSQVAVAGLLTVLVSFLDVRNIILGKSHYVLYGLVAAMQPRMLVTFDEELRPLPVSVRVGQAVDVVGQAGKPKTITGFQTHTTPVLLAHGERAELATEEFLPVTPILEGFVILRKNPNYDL
UniProt Q8TBF2: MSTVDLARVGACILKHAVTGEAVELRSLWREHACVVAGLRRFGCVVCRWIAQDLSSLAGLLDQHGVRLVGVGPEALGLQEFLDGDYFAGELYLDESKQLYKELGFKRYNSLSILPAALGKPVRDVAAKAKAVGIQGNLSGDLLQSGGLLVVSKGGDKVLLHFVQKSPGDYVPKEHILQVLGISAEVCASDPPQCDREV
UniProt Q14997: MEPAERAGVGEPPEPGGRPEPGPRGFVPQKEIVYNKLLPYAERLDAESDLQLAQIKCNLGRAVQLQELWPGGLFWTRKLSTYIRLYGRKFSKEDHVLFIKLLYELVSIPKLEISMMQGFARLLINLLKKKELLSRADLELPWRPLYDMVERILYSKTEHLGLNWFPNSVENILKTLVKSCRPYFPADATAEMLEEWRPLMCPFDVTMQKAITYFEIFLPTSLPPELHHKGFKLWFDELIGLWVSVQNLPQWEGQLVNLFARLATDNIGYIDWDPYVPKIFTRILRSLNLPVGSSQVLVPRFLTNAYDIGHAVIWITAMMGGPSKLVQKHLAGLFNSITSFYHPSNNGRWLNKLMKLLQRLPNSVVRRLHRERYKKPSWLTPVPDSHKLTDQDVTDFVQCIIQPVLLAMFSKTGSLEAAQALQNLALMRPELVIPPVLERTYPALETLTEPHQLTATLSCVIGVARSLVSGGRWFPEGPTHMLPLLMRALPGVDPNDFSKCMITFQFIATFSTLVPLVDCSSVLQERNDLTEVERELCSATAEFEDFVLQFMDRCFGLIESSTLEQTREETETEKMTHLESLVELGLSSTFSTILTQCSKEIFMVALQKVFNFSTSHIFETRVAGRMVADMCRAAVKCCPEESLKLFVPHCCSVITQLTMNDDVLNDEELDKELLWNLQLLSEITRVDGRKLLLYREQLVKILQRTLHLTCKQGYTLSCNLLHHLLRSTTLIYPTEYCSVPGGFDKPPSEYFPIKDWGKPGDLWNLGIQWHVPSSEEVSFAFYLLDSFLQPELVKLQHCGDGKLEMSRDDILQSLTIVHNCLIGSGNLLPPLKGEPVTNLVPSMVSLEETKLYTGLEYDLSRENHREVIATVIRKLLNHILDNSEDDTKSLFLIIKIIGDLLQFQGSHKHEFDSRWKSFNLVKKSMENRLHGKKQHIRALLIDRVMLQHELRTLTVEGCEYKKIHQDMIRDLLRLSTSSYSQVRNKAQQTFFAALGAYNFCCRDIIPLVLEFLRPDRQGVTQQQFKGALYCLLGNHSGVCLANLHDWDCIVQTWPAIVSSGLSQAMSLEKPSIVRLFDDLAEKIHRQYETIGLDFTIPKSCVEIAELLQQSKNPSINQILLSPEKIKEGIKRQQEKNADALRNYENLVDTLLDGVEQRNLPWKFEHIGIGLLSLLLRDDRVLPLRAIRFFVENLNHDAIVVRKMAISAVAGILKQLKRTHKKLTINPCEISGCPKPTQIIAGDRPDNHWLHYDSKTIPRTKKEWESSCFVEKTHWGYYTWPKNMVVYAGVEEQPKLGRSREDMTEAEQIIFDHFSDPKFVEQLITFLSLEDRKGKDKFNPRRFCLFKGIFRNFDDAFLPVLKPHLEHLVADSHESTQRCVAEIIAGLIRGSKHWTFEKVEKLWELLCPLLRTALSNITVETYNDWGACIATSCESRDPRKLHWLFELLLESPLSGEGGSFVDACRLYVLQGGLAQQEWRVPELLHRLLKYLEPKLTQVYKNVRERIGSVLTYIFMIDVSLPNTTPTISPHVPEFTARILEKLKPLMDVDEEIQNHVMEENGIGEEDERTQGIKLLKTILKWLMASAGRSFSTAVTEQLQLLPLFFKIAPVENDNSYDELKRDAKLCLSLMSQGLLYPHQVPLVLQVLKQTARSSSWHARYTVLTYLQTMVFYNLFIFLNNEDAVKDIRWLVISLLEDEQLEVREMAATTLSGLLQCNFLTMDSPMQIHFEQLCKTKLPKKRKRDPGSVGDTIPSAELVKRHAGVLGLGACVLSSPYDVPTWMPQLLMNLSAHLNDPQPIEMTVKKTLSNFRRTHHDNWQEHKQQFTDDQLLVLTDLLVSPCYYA
UniProt P60900, whole entry, looked up: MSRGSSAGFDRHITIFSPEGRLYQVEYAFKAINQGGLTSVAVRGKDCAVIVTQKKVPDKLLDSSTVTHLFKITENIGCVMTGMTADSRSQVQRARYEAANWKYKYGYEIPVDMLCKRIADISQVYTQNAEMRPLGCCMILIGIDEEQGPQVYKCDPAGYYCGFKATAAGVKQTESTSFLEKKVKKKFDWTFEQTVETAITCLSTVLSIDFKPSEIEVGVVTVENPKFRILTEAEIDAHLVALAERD
UniProt Q9P2W1: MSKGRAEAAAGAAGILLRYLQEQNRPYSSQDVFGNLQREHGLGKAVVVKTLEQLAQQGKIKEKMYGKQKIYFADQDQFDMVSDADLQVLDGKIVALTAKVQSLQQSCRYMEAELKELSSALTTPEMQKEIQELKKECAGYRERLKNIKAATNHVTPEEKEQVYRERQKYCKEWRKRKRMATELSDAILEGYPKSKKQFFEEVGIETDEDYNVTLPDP
UniProt Q96BW5: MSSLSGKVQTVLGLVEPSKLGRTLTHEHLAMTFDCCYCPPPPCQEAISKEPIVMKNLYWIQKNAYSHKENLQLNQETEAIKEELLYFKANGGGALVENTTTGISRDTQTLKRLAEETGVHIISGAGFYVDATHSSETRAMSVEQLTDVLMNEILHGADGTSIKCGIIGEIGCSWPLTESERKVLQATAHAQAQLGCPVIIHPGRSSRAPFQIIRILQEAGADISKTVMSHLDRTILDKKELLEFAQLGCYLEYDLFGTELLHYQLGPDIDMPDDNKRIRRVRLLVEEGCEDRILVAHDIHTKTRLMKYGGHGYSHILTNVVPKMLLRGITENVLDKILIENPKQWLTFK
UniProt P49721: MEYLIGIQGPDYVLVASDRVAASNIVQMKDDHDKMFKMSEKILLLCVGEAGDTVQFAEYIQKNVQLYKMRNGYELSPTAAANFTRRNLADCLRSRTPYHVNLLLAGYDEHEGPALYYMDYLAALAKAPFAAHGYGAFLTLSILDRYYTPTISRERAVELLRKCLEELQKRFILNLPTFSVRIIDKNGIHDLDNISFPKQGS
UniProt P43686, whole entry, looked up: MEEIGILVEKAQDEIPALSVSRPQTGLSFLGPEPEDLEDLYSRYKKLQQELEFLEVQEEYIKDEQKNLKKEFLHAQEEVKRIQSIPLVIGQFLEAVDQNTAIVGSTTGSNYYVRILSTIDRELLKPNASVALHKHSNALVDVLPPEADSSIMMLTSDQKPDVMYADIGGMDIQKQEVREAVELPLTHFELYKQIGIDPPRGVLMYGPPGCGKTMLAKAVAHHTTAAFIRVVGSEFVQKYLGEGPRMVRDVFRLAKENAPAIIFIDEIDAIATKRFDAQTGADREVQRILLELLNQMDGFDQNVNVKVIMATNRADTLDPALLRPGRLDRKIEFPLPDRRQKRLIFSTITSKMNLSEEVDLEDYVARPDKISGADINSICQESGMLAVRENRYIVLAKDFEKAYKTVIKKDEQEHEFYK
UniProt Q96M27: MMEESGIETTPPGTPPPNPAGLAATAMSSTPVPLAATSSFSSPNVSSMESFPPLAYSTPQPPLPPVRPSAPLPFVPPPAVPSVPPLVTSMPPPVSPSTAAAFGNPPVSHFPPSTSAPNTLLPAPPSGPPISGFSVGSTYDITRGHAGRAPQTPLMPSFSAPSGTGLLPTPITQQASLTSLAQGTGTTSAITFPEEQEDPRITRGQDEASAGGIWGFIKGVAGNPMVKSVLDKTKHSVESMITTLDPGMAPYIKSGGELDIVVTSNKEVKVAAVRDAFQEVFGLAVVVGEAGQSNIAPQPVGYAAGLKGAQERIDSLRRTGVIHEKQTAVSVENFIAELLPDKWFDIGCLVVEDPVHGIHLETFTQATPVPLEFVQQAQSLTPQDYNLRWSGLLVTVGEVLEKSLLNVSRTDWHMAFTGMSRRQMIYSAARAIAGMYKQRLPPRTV

How the values were obtained:
Test in all cases: log2 fold change, soluble protein after heating vs DMSO (PISA); higher = thermal stabilisation; K562 lysate, 10 uM; active = over 0.2 and 3.5 SD of the protein, either way, in both replicates (recomputed)
alvocidib = compound: CN1CC[C@H](c2c(O)cc(O)c3c(=O)cc(-c4ccccc4Cl)oc23)[C@H](O)C1 [alvocidib]
Outline: (§1)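 Quantification was by TMTpro 16plex LC-MS/MS with equalised channel sums, applied to the supernatant after 21,000xg for 90 min. Samples were crude K562 extract at 1 mg/mL protein in PBS pH 7.4 with 1 mM MgCl2, treated with 10 μM compound for 30 min, heated for 3 min across 48°C-58°C, pooled and brought to 0.5% NP-40 at 4°C. Values are log-two fold changes in thermal stability relative to solvent controls, from duplicates.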

Tubastatin A = compound: CN1CCc2c(c3ccccc3n2Cc2ccc(C(=O)NO)cc2)C1 [Tubastatin A]
Outline: as §1

[1] = compound: CNC(=O)C1=CC=CC=C1NC2=NC(=NC=C2Cl)NC3=C(C=C(C=C3)N4CCOCC4)OC
Outline: as §1

defactinib = compound: CNC(=O)c1ccc(Nc2ncc(C(F)(F)F)c(NCc3nccnc3N(C)S(C)(=O)=O)n2)cc1 [defactinib]
Outline: as §1

[2] = compound: CNc1nc(-c2ccc3c(N)n[nH]c3c2)cc(N2C[C@@H](C(=O)NC3CCCCC3)CC[C@H]2C)n1
Outline: as §1

encorafenib = compound: COC(=O)N[C@@H](C)CNc1nccc(-c2cn(C(C)C)nc2-c2cc(Cl)cc(NS(C)(=O)=O)c2F)n1 [encorafenib]
Outline: as §1

[3] = compound: COC(=O)[C@H](CCSC)NC(=O)C1=C(C=C(C=C1)NC[C@H](CS)N)C2=CC=CC=C2
Outline: as §1

alisertib = compound: COc1cc(Nc2ncc3c(n2)-c2ccc(Cl)cc2C(c2c(F)cccc2OC)=NC3)ccc1C(=O)O [alisertib]
Outline: as §1

[4] = compound: COc1cc2nc(-c3cc(F)ccc3O)nc(N[C@@H]3CNC[C@H]3C(C)(C)O)c2cc1OC
Outline: as §1

gefitinib = compound: COc1cc2ncnc(Nc3ccc(F)c(Cl)c3)c2cc1OCCCN1CCOCC1 [gefitinib]
Outline: as §1

lapatinib = compound: CS(=O)(=O)CCNCc1ccc(-c2ccc3ncnc(Nc4ccc(OCc5cccc(F)c5)c(Cl)c4)c3c2)o1 [lapatinib]
Outline: as §1

pictilisib = compound: CS(=O)(=O)N1CCN(Cc2cc3nc(-c4cccc5[nH]ncc45)nc(N4CCOCC4)c3s2)CC1 [pictilisib]
Outline: as §1

crizotinib = compound: C[C@@H](Oc1cc(-c2cnn(C3CCNCC3)c2)cnc1N)c1c(Cl)ccc(F)c1Cl [crizotinib]
Outline: as §1

[5] = compound: C[C@H](C1=CC=C(C=C1)C(=O)NC2=C3C=CNC3=NC=C2)N
Outline: as §1

duvelisib = compound: C[C@H](Nc1ncnc2nc[nH]c12)c1cc2cccc(Cl)c2c(=O)n1-c1ccccc1 [duvelisib]
Outline: as §1

gandotinib = compound: Cc1cc(Nc2cc(CN3CCOCC3)c3nc(C)c(Cc4ccc(Cl)cc4F)n3n2)n[nH]1 [gandotinib]
Outline: as §1

tozasertib = compound: Cc1cc(Nc2cc(N3CCN(C)CC3)nc(Sc3ccc(NC(=O)C4CC4)cc3)n2)n[nH]1 [tozasertib]
Outline: as §1

doramapimod = compound: Cc1ccc(-n2nc(C(C)(C)C)cc2NC(=O)Nc2ccc(OCCN3CCOCC3)c3ccccc23)cc1 [doramapimod]
Outline: as §1

bafetinib = compound: Cc1ccc(NC(=O)c2ccc(CN3CC[C@H](N(C)C)C3)c(C(F)(F)F)c2)cc1Nc1nccc(-c2cncnc2)n1 [bafetinib]
Outline: as §1

[6] = compound: Cc1cccc(CC(=O)N2CCc3c2ccc(-c2cn(C)c4ncnc(N)c24)c3F)n1
Outline: as §1

Measured: log2 fold change

PRPS2 isoform 2 (UniProt P11908)
inactive: alvocidib 0.01 | Tubastatin A -0.022 | [1] -0.017 | defactinib -0.028 | [2] -0.032 | encorafenib -0.009 | [3] -0.029 | alisertib 0.004 | [4] 0.005 | gefitinib -0.021 | lapatinib -0.024 | pictilisib -0.038 | crizotinib 0.005 | [5] 0.025 | duvelisib 0.016 | gandotinib -0.016 | tozasertib 0.001 | doramapimod 0.021 | bafetinib 0.003 | [6] -0.037

PSMG1 (UniProt O95456)
inactive: alvocidib -0.013 | Tubastatin A 0.027 | [1] -0.014 | defactinib -0.021 | [2] -0.073 | encorafenib 0.03 | [3] -0.058 | alisertib 0.006 | [4] 0.036 | gefitinib 0.035 | lapatinib 0.012 | pictilisib 0.057 | crizotinib 0.034 | [5] 0.001 | duvelisib 0.093 | gandotinib -0.01 | tozasertib 0.052 | doramapimod 0.039 | bafetinib 0.06 | [6] -0.026

PTDSS1 (UniProt P48651)
inactive: alvocidib -0.089 | Tubastatin A -0.08 | [1] -0.056 | defactinib 0.085 | [2] 0.023 | encorafenib 0.059 | [3] -0.166 | alisertib -0.032 | [4] -0.078 | gefitinib 0.118 | lapatinib -0.065 | pictilisib 0.048 | crizotinib -0.059 | [5] -0.026 | duvelisib -0.005 | gandotinib -0.229 | tozasertib 0.103 | doramapimod -0.022 | bafetinib -0.134 | [6] 0.126

PUS3 (UniProt Q9BZE2)
inactive: alvocidib 0.094 | Tubastatin A -0.181 | [1] 0.035 | defactinib -0.089 | [2] -0.117 | encorafenib 0.06 | [3] 0.04 | alisertib 0.01 | [4] -0.021 | gefitinib 0.041 | lapatinib 0.008 | pictilisib -0.085 | crizotinib 0.013 | [5] 0.148 | duvelisib -0.03 | gandotinib -0.234 | tozasertib 0.019 | doramapimod -0.087 | bafetinib -0.005 | [6] -0.185

PRUNE1 (UniProt Q86TP1)
inactive: alvocidib -0.009 | Tubastatin A -0.029 | [1] 0.02 | defactinib 0.008 | [2] -0.046 | encorafenib 0 | [3] 0.033 | alisertib -0.017 | [4] -0.009 | gefitinib 0.008 | lapatinib -0.009 | pictilisib -0.004 | crizotinib 0.01 | [5] 0.01 | duvelisib 0.065 | gandotinib -0.034 | tozasertib -0.007 | doramapimod -0.001 | bafetinib -0.011 | [6] 0.028

PSMA7 (UniProt O14818)
inactive: alvocidib 0.012 | Tubastatin A 0.046 | [1] 0.008 | defactinib -0.032 | [2] 0.005 | encorafenib -0.011 | [3] -0.032 | alisertib 0.001 | [4] -0.008 | gefitinib 0.028 | lapatinib -0.017 | pictilisib 0.007 | crizotinib 0.058 | [5] 0.035 | duvelisib -0.031 | gandotinib -0.032 | tozasertib 0.003 | doramapimod -0.046 | bafetinib 0.022 | [6] -0.071

PSMD2 (UniProt Q13200)
inactive: alvocidib 0.027 | Tubastatin A -0.004 | [1] 0.015 | defactinib -0.003 | [2] 0.019 | encorafenib -0.006 | [3] 0.063 | alisertib 0.012 | [4] 0 | gefitinib 0.005 | lapatinib -0.006 | pictilisib 0.001 | crizotinib -0.014 | [5] 0.059 | duvelisib 0.001 | gandotinib -0.067 | tozasertib -0.008 | doramapimod 0.003 | bafetinib -0.031 | [6] -0.037

PSMB7 (UniProt Q99436)
inactive: alvocidib -0.024 | Tubastatin A 0.032 | [1] -0.008 | defactinib -0.025 | [2] 0.027 | encorafenib -0.016 | [3] 0.016 | alisertib -0.03 | [4] 0.029 | gefitinib -0.012 | lapatinib -0.029 | pictilisib 0.007 | crizotinib 0 | [5] -0.03 | duvelisib 0.046 | gandotinib 0.027 | tozasertib -0.017 | doramapimod 0.014 | bafetinib 0.007 | [6] -0.021

PRXL2B isoform 3 (UniProt Q8TBF2)
inactive: alvocidib 0.049 | Tubastatin A 0.041 | [1] 0.037 | defactinib -0.025 | [2] 0.118 | encorafenib -0.015 | [3] 0.129 | alisertib 0.028 | [4] -0.007 | gefitinib 0.002 | lapatinib 0.017 | pictilisib -0.04 | crizotinib -0.022 | [5] -0.074 | duvelisib 0.044 | gandotinib -0.027 | tozasertib -0.002 | doramapimod 0.042 | bafetinib -0.004 | [6] 0.025

PSME4 (UniProt Q14997)
inactive: alvocidib -0.039 | Tubastatin A -0.076 | [1] 0.014 | defactinib 0.029 | [2] 0.013 | encorafenib 0.038 | [3] 0.017 | alisertib 0.023 | [4] -0.01 | gefitinib -0.002 | lapatinib -0.015 | pictilisib -0.015 | crizotinib -0.078 | [5] -0.112 | duvelisib 0.004 | gandotinib 0.046 | tozasertib 0.03 | doramapimod 0.018 | bafetinib -0.022 | [6] 0.099

PSMA6 (UniProt P60900)
inactive: alvocidib -0.001 | Tubastatin A 0.025 | [1] 0.002 | defactinib -0.005 | [2] 0.009 | encorafenib -0.023 | [3] 0.003 | alisertib -0.001 | [4] 0.001 | gefitinib -0.016 | lapatinib -0.022 | pictilisib 0.002 | crizotinib 0.013 | [5] 0.021 | duvelisib -0.01 | gandotinib 0.019 | tozasertib -0.012 | doramapimod -0.011 | bafetinib 0.106 | [6] -0.054

PSMC3IP (UniProt Q9P2W1)
inactive: alvocidib -0.022 | Tubastatin A -0.071 | [1] 0.036 | defactinib 0.008 | [2] 0.031 | encorafenib -0.008 | [3] -0.014 | alisertib 0.026 | [4] 0.019 | gefitinib 0.039 | lapatinib -0.025 | pictilisib -0.045 | crizotinib 0.032 | [5] -0.038 | duvelisib 0.009 | gandotinib 0.007 | tozasertib -0.007 | doramapimod -0.008 | bafetinib 0.022 | [6] -0.027

PTER (UniProt Q96BW5)
inactive: alvocidib -0.05 | Tubastatin A 0.017 | [1] -0.021 | defactinib -0.003 | [2] 0.018 | encorafenib -0.036 | [3] -0.108 | alisertib -0.012 | [4] 0.028 | gefitinib 0.01 | lapatinib -0.024 | pictilisib -0.027 | crizotinib 0.015 | [5] -0.095 | duvelisib -0.002 | gandotinib 0.041 | tozasertib 0.014 | doramapimod 0.026 | bafetinib 0.008 | [6] 0.026

Two consecutive records out of the list so far:
PSMC3IP (UniProt Q9P2W1)
inactive: alvocidib -0.022 | Tubastatin A -0.071 | [1] 0.036 | defactinib 0.008 | [2] 0.031 | encorafenib -0.008 | [3] -0.014 | alisertib 0.026 | [4] 0.019 | gefitinib 0.039 | lapatinib -0.025 | pictilisib -0.045 | crizotinib 0.032 | [5] -0.038 | duvelisib 0.009 | gandotinib 0.007 | tozasertib -0.007 | doramapimod -0.008 | bafetinib 0.022 | [6] -0.027

PTER (UniProt Q96BW5)
inactive: alvocidib -0.05 | Tubastatin A 0.017 | [1] -0.021 | defactinib -0.003 | [2] 0.018 | encorafenib -0.036 | [3] -0.108 | alisertib -0.012 | [4] 0.028 | gefitinib 0.01 | lapatinib -0.024 | pictilisib -0.027 | crizotinib 0.015 | [5] -0.095 | duvelisib -0.002 | gandotinib 0.041 | tozasertib 0.014 | doramapimod 0.026 | bafetinib 0.008 | [6] 0.026

Carrying on.

PSMB2 (UniProt P49721)
inactive: alvocidib 0.008 | Tubastatin A 0.049 | [1] -0.014 | defactinib 0.007 | [2] 0.04 | encorafenib 0.011 | [3] -0.055 | alisertib 0.004 | [4] 0.005 | gefitinib -0.034 | lapatinib -0.021 | pictilisib 0.011 | crizotinib -0.012 | [5] -0.017 | duvelisib 0.028 | gandotinib 0.003 | tozasertib 0.024 | doramapimod 0.006 | bafetinib -0.017 | [6] -0.008

PSMC4 (UniProt P43686)
inactive: alvocidib 0.02 | Tubastatin A -0.032 | [1] 0.02 | defactinib 0.004 | [2] -0.021 | encorafenib -0.002 | [3] 0.051 | alisertib 0.015 | [4] 0.001 | gefitinib -0.032 | lapatinib -0.02 | pictilisib 0.016 | crizotinib -0.014 | [5] 0.058 | duvelisib -0.006 | gandotinib -0.084 | tozasertib 0.01 | doramapimod -0.001 | bafetinib -0.028 | [6] -0.048

PRRC1 (UniProt Q96M27)
inactive: alvocidib -0.044 | Tubastatin A 0.038 | [1] 0.007 | defactinib 0.038 | [2] 0.032 | encorafenib 0.075 | [3] -0.025 | alisertib 0.014 | [4] -0.003 | gefitinib -0.005 | lapatinib 0.053 | pictilisib -0.049 | crizotinib 0.07 | [5] -0.002 | duvelisib 0.007 | gandotinib 0.067 | tozasertib 0.016 | doramapimod -0.016 | bafetinib -0.047 | [6] 0.034
